# Library screening results

From ChEMBL document CHEMBL3988442, “University of Dundee, Small-Polar-MMV Screening Library” (2021).

Each number is a percent effect as filed. The controls that fix the scale are not given in the record; negative values are as filed. Compounds were drawn at random from those tested, without regard to their results. Two or more numbers in one place are separate tests of the same structure; such repeats can differ widely.

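Viability assay of Plasmodium falciparum sporozoites; the read-out is not stated. The concentration is filed as 10 mM, unlikely as a test dose, so the dose is not known. Higher reads as lower viability (inferred: compounds with an IC50 in retests scored well above the rest). Strong results were mostly tested again. Size under these conditions: about 34,000 compounds, about 280 of them at 50% or above in at least one test.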

| # | compound | effect |
|---|---|---|
| 1 | `Cc1ccc(C(=O)N2CCC(Oc3ccccc3)CC2)c(=O)[nH]1` | -1.092 |
| 2 | `CNCC[C@H]1CC(C)(C)Oc2ccc(C)cc21` | 12.28 |
| 3 | `Cc1noc(C)c1CN1CCc2ncnc(-c3ccccc3)c2CC1.O=C(O)C(F)(F)F` | 17.75 |
| 4 | `CCc1nnc2n1CCN(C(=O)c1csc(-c3cnn(C)c3)n1)C2` | -3.583 |
| 5 | `Cc1cc(Nc2ccc(F)cn2)cc(C2CCN(Cc3ncc[nH]3)C2)n1` (centres undefined) | 9.004 |
| 6 | `COC(=O)c1cccn1C1CCN(CCN2C(=O)CCC2=O)CC1` | -3.781 |
| 7 | `Cc1ccc(F)c(C(=O)N2CCN(S(C)(=O)=O)[C@@H](C)C2)c1` | -0.8264 |
| 8 | `COCCC(=O)N1CCC(c2cc(O)n(C)n2)C1` (centres undefined) | 3.991 |
| 9 | `Cc1nc(CN2CCCCC2CCc2ccc(O)cc2)no1` (centres undefined) | -8.292 |
| 10 | `O=C(c1ccnn1-c1ccc2ccccn12)N1CCOCC1` | 13.53 |
| 11 | `Cc1cn[nH]c1C1COCCN1Cc1ccsc1` (centres undefined) | -9.945 |
| 12 | `[H][C@@]12CCN(Cc3cc(C)on3)C[C@]1([H])OCCN(c1cccnc1)C2=O` | 3.385 |
| 13 | `CCc1ccc(CN2CCc3ncnc(-c4cccnc4)c3CC2)o1.O=C(O)C(F)(F)F.O=C(O)C(F)(F)F` | 10.96 |
| 14 | `[H][C@]12CCN(C(=O)Cc3ccc4c(c3)CCCC4)CC[C@]1([H])N(C)C(=O)CO2` | 1.907 |
| 15 | `CN(C)C(=O)CO[C@H]1CO[C@@]2(CCN(Cc3ccoc3)C2)C1` | 4.685 |
| 16 | `Cc1ccc(S(=O)(=O)NCc2cccc(C(=O)N3CCCC3)c2)cc1F` | 4.321 |
| 17 | `Cc1noc(C)c1C(=O)NCc1cccnc1N(C)C` | 5.354 |
| 18 | `CCOC(=O)N1CC2(CCNCC2)c2cc(Cl)ccc21.Cl` | -4.874 |
| 19 | `O=C(NCCn1ccnc1)N1CCN(Cc2cccnc2)CC1` | 4.194 |
| 20 | `Cc1ccccc1OCC(=O)N1CCOC2(CNCCOC2)C1` (centres undefined) | -6.228 |
| 21 | `COCCC(=O)N1CC2(CCN(Cc3cccc(Cl)c3)CC2)C1.O=C(O)C(F)(F)F` | -10.73 |
| 22 | `O=C(O)c1ccc(=O)n(CC(c2ccc(Cl)cc2)N2CCOCC2)c1` (centres undefined) | 5.86 |
| 23 | `OCC1(CCOc2ccccc2)CCCN(c2ccc(Cl)cn2)C1` (centres undefined) | -16.23 |
| 24 | `Cc1cc(C(=O)N2CCc3nc(N4CCCC4)nc(C)c3CC2)c(C)o1` | -4.051 |
| 25 | `CO[C@@H]1CCN(C(=O)Cc2ccsc2)[C@H]1Cc1cccnc1.O=C(O)C(F)(F)F` | 1.113 |
| 26 | `[H][C@@]12COC[C@]1(c1nc(C)no1)CN(C(=O)C1CCOCC1)C2` | 1.193 & 0 |
| 27 | `Cc1ncc2c(n1)CCN(C(=O)Cc1c(C)noc1C)C2` | 5.623 |
| 28 | `Cn1nccc1-c1cc(C2CCN(S(C)(=O)=O)CC2)ccn1` | -3.147 |
| 29 | `Cc1ccc(CNC(=O)CN2CCCC(Cn3cncn3)C2)s1` (centres undefined) | -4.412 |
| 30 | `CCCNC(=O)CCC(=O)Nc1ccc(-n2cncn2)c(F)c1` | -3.462 |
| 31 | `c1cncc(CNC2CCc3ncnn3C2)c1` (centres undefined) | 3.106 |
| 32 | `CN(C)CC(=O)N1CCOC2(CCCN(c3ncccc3F)C2)C1.O=C(O)C(F)(F)F.O=C(O)C(F)(F)F` (centres undefined) | -11.05 |
| 33 | `O=C(O)C(F)(F)F.O=C(O)C(F)(F)F.[H][C@@]12C[C@@H](Oc3cncnc3)CN1CCN(Cc1ccccn1)C2` | 5.779 |
| 34 | `CC(C)c1cc(NC(=O)CN2CCC(C(N)=O)CC2)on1` | -2.498 |
| 35 | `Cc1ccc(CN(CCCN2CCOCC2)Cc2cnc(C)n2C)o1.O=C(O)CC(O)(CC(=O)O)C(=O)O` | 10.13 |
| 36 | `c1cc(-c2c[nH]nc2C2CCCCC2)nc(N2CCCCCC2)n1` | 8.721 |
| 37 | `O=C(c1ccc[nH]1)N1CCn2cc(Cn3cncn3)nc2C1` | -8.651 |
| 38 | `Cc1ccc(NC2CCN(C(=O)COCC(F)(F)F)CC2)nn1` | -7.16 |
| 39 | `CCc1ncncc1C(=O)N1CCN(Cc2cscn2)CC1` | 15.16 |
| 40 | `CC(Cn1ccnc1)NC(=O)C1(c2ccccc2)CC1` (centres undefined) | 5.922 |
| 41 | `CC(O)CN1CCN(C(=O)c2ccn(-c3ccccc3Cl)n2)CC1` (centres undefined) | 10.85 |
| 42 | `CNC(=O)c1ccc(C(=O)N2CCCC2c2c(C)nn(C)c2C)cn1` (centres undefined) | -5.273 |
| 43 | `CCc1nc(CCNC(=O)C2CCOC2)sc1C` (centres undefined) | -23.45 |
| 44 | `Cc1nc(C)n(CC(=O)N2CCc3ncc(Cl)cc3C2)n1` | 11.33 |
| 45 | `CCC(O)CN1CCN(C(=O)c2ccc3c(c2)COC3)CC1` (centres undefined) | 5.554 |
| 46 | `Cc1nn(CC(C)C)c(N(C)C)c1CNCc1ccccc1CO` | 9.702 |
| 47 | `CC(C)(C)c1n[nH]cc1CNC1CCC(C(F)(F)F)CC1.Cl` (centres undefined) | -10.74 |
| 48 | `c1cnc2[nH]c(C3CCNCC3)c(CN3CCOCC3)c2c1` | -8.57 |
| 49 | `CN1CCOC(CNCc2csc(C3CCCC3)n2)C1` (centres undefined) | -4.33 |
| 50 | `CN(C)CCNC(=O)c1cnc2c(c1)nc(-c1ccccc1Cl)n2C` | -9.919 |
| 51 | `Cc1cnc(C(C)(C)NC(=O)NCc2ccc(C#N)cc2F)s1` | -5.895 |
| 52 | `CCN(CC)c1nc2sc(C(=O)N3CCNC(=O)C3)cc2s1` | -0.7785 |
| 53 | `COc1cccc(S(=O)(=O)NC(=O)CC2CCCO2)c1` (centres undefined) | 10.34 |
| 54 | `O=C(O)C(F)(F)F.[H][C@@]12COC[C@H](C(=O)N3CCC(F)CC3)[C@]1([H])CN(C1CCOCC1)C2` | -7.751 |
| 55 | `c1nc(-c2nc(C3CCOC3)no2)cs1` (centres undefined) | 3.158 |
| 56 | `CC(C)c1nnc(CN2CCCC3(CC2)CN(C)C(=O)O3)o1` (centres undefined) | 0.2215 & -4.707 |
| 57 | `COc1ccc(CCNC2CCCN(Cc3noc(C)n3)C2)cc1` (centres undefined) | 8.446 |
| 58 | `Cc1nnc(C(NS(=O)(=O)c2cc(C#N)ccc2C)C(C)C)[nH]1` (centres undefined) | 11.86 |
| 59 | `CN(C)C(=O)c1ccc(-c2cccc3c2CCNC3)cc1` | 0.4579 |
| 60 | `[H][C@@]12CCN(C(=O)c3ccccc3)C[C@@]1([H])O[C@H](c1nnc(C3CC3)o1)C2` | 4.781 |
| 61 | `O=C(O)C(F)(F)F.O=C(O)C(F)(F)F.c1cncc(N2CCCC3(CCN(CCN4CCCC4)CC3)C2)c1` | 10.96 |
| 62 | `Cc1nc(CNC(=O)NCCc2ccc(N(C)C)cc2)cs1` | 7.52 |
| 63 | `CCOc1ccc(Cl)cc1CCNC(=O)Cn1ccccc1=O` | 0.2595 |
| 64 | `CN(C)c1nccnc1C1CCN(C(=O)C2(C)CCCCN2C)CC1` (centres undefined) | 20.92 |
| 65 | `Cc1cc(C)n(CC2CCCN2C(=O)c2ccc3c(c2)nnn3C)n1` (centres undefined) | -6.966 |
| 66 | `C[C@@H]1CN(C(=O)[C@H]2CCCO2)C[C@]12CCN(c1ccsc1)C2=O` | -11.08 |
| 67 | `Cc1csc(CNC(=O)Nc2cc(C(F)(F)F)c[nH]c2=O)n1` | -7.615 |
| 68 | `COCC(=O)N1CCC2(CCN(Cc3cccnc3)C2)CC1.O=C(O)C(F)(F)F.O=C(O)C(F)(F)F` | -0.9632 |
| 69 | `Cc1ccc(C)c2c(C)c(C(=O)NCCC(=O)N3CCOCC3)oc12` | -12.79 |
| 70 | `Cc1nc(NC2CCN(C(=O)C3CC3)CC2)c2cnn(C)c2n1` | 4.487 |
| 71 | `CCN(C)S(=O)(=O)NCC1CCCN(Cc2ccccc2F)C1` (centres undefined) | -9.966 & -26.34 |
| 72 | `O=C(CC1CC1)NCc1cn2c(n1)CN(C(=O)c1cccnc1)CC2` | -11.42 |
| 73 | `Cc1nn(C(C)C)c(C)c1NC(=O)Nc1cccnc1N1CCCC1` | 1.956 |
| 74 | `Cc1cc(C)nc(C2CCN(C(=O)c3cnco3)C2)n1` (centres undefined) | 5.087 |
| 75 | `COc1c(CNCc2ccc(N3CCCC3)nc2)c(C(C)C)nn1C` | 9.5 |
| 76 | `CN(C)C(=O)CS(=O)(=O)Cc1cc(Cl)c2c(c1)OCCO2` | 4.247 |
| 77 | `Cc1nn(C)c(N(C)C)c1CNCc1cccc(OCCN(C)C)c1` | 8.409 |
| 78 | `CCN(CCNS(=O)(=O)C1CCOCC1)C(=O)OC(C)(C)C` | -0.6055 |
| 79 | `Cc1cc(C)n(C2CN(CC(O)c3ccc(C(F)(F)F)cc3)C2)n1` (centres undefined) | -16.36 |
| 80 | `CC(=O)N1CCCCC1c1nc2c(c(N3CCCCC3)n1)CN(C)CC2` (centres undefined) | -12.44 |
| 81 | `COCCc1noc(CN2CCCC2Cn2nc(C)cc2C)n1` (centres undefined) | 3.106 |

The last 9 entries again:

compound	effect
Cc1nn(C(C)C)c(C)c1NC(=O)Nc1cccnc1N1CCCC1	1.956
Cc1cc(C)nc(C2CCN(C(=O)c3cnco3)C2)n1 (centres undefined)	5.087
COc1c(CNCc2ccc(N3CCCC3)nc2)c(C(C)C)nn1C	9.5
CN(C)C(=O)CS(=O)(=O)Cc1cc(Cl)c2c(c1)OCCO2	4.247
Cc1nn(C)c(N(C)C)c1CNCc1cccc(OCCN(C)C)c1	8.409
CCN(CCNS(=O)(=O)C1CCOCC1)C(=O)OC(C)(C)C	-0.6055
Cc1cc(C)n(C2CN(CC(O)c3ccc(C(F)(F)F)cc3)C2)n1 (centres undefined)	-16.36
CC(=O)N1CCCCC1c1nc2c(c(N3CCCCC3)n1)CN(C)CC2 (centres undefined)	-12.44
COCCc1noc(CN2CCCC2Cn2nc(C)cc2C)n1 (centres undefined)	3.106